{"sequences": {"note": "Chains of the proteins cited; added tags and fusions are not shown.", "UniProt Q92547, whole entry": "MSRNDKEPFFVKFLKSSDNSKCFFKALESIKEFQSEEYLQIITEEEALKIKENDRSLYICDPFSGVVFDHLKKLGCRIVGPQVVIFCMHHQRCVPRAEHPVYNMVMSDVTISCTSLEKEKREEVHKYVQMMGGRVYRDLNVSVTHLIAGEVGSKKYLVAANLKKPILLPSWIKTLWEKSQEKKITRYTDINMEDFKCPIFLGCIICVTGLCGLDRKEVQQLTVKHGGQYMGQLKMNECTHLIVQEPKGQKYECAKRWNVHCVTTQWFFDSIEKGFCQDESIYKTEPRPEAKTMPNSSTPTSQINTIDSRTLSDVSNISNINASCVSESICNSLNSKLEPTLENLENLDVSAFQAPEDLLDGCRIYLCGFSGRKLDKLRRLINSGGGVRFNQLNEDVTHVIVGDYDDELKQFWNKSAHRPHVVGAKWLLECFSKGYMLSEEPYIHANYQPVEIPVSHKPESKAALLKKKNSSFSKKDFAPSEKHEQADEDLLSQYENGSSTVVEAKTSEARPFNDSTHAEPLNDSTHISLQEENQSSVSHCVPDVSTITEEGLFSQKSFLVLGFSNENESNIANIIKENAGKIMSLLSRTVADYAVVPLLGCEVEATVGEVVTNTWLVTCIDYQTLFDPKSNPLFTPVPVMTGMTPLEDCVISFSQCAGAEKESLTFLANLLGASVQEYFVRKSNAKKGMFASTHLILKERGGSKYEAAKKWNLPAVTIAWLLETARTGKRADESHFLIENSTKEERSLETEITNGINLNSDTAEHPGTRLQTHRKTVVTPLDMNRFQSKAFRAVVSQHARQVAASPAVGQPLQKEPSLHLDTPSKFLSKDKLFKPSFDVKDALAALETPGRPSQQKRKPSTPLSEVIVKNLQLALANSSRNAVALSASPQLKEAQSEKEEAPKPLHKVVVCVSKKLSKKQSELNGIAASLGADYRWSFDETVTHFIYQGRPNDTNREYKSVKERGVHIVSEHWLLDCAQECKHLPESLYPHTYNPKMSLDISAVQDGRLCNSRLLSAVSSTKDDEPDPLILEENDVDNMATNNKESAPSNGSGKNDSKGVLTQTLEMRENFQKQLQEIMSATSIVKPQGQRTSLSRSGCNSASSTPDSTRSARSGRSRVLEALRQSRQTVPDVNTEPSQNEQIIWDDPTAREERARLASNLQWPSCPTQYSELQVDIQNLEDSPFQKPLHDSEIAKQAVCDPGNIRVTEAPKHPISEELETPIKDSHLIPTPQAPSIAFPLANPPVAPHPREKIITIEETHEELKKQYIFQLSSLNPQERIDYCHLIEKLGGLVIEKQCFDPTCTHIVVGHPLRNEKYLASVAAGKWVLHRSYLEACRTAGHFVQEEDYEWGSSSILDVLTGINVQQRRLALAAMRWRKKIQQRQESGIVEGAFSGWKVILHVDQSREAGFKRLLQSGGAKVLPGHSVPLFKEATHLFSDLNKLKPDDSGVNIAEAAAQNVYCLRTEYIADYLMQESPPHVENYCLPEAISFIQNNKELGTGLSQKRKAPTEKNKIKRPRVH"}, "source": "paper PMC5415106", "key": {"[1]": {"target": "TopBP1 full-length (Homo sapiens) (UniProt Q92547)", "assay": "EMSA", "settings": "less than 50% shifted up to 320 nM, authors say weak, EMSA: 1 nM 32P-DNA, 20 mM Tris-HCl pH 7.5, 0.1 mM EDTA, 0.2 mM DTT, 10% glycerol, 5 min at 30 C, 0.7% native agarose in 0.5x TBE, recombinant protein, residues 1-1522, label: 32P"}, "[2]": {"target": "TopBP1 N-terminal region (Homo sapiens) (UniProt Q92547)", "assay": "EMSA", "settings": "up to 320 nM protein; EMSA: 1 nM 32P-DNA, 20 mM Tris-HCl pH 7.5, 0.1 mM EDTA, 0.2 mM DTT, 10% glycerol, 5 min at 30 C, 0.7% native agarose in 0.5x TBE; recombinant protein; label: 32P; folded or branched DNA"}}, "note": "For part of these data: For at least one entry, the source does not settle the construct or the ends of the probe. For part of these data: No signal at the amounts used counts as a negative."}
{"sequence": "ATGTCCTAGCAAGCCAGAATTCGGCAGCGTC (double strand) [blunt dsDNA]", "values": [{"measurement": "half-maximal binding", "setting": "[1]", "result": "> 320", "unit": "nM"}]}
{"sequence": "TTTTTTTTTTTTTTTTTTTTTTTTTTTTTTTTTTTTTTTTTTTTTTTTTTTTTTTTTTTTTTTTTTTTTTTTTTTTTTTT [ssDNA (dT80)]", "values": [{"measurement": "half-maximal binding", "setting": "[1]; single-stranded DNA", "result": "> 320", "unit": "nM"}]}
{"sequence": "ATGTCCTAGCAAGCCAGAATTCGGCAGCGTCTTTTTTTTTTTTTTTTTTTTTTTTTTTTTTTTTTTTTTTTTTTTTTTTTTTTTTTTTTTTTTTTTTTTTTTTTTTTTTTTCCACGTCGGCGTCGCCACGAGC / GCTCGTGGCGACGCCGACGTGGTTTTTTTTTTTTTTTTTTTTTTTTTTTTTTTTTTTTTTTTTTTTTTTTTTTTTTTTTTTTTTTTTTTTTTTTTTTTTTTTGACGCTGCCGAATTCTGGCTTGCTAGGACAT [bubble DNA]", "values": [{"measurement": "binding result", "setting": "[2]", "result": "no binding"}]}
